These are yes or no findings as the source states them, for the method shown. Binding seen in cells or lysates may run through a third protein. Some entries that bind do so weakly or less than the wild type.

Amino acid sequences for entries named in this document (tags omitted). Residues count along the entry.
UniProt P13473, residues 29-410: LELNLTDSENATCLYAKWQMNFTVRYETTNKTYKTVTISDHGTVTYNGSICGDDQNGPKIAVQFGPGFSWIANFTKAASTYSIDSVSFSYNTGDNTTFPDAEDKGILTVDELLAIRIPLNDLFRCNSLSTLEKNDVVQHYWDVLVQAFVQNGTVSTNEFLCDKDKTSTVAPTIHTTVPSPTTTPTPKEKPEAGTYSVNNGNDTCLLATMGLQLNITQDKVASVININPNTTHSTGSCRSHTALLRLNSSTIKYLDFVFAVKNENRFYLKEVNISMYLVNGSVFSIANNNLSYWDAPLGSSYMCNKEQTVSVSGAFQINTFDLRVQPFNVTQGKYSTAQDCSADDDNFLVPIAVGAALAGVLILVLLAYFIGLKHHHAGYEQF

Holding throughout (test): co-IP
For assay [1], the target named is HCV NS5A protein (Hepatitis C virus, J4L6S (1b)) (UniProt O92972).
For assay [2], the target named is LAMP2 (human (endogenous in HepG2)) (UniProt P13473).
Assay [3] deals with p62 (human (endogenous in HepG2)) (UniProt Q13501).

As to p62 (from UniProt Q13501 1-440), the binding entry in assay [1] and in assay [2] was “binds” throughout.

B1: Interferon lambda-2 (IL28A), wild type (natural protein, human, UniProt Q8IZJ0 26-200, looked up)
chain: VPVARLHGALPDARGCHIAQFKSLSPQELQAFKRAKDALEESLLLKDCRCHSRLFPRTWDLRQLQVRERPMALEAELALTLKVLEATADTDPALVDVLDQPLHTLHHILSQFRACIQPQPTAGPRTRGRLHHWLYRLQEAPKKESPGCLEASVTFNLFRLLTRDLNCVASGDLCV
notes: also called WT IL28A; IL28A overexpression construct
Regarding B1, the binding result in assay [1], in assay [3] and in assay [2] was “binds” throughout.

The values are drawn from paper PMC7090004, “IL28A protein homotetramer structure is required for autolysosomal degradation of HCV-NS5A in vitro” (Cell Death & Disease, 2020).
